No constants are given. Whether binding was seen depends on the method and setting. Some entries that bind do so weakly or less than the wild type.
Target: FGFR1c kinase domain (residues 458-765; FGFR1K) (UniProt P11362)
Assay: cross-linking; DSP cross-linking of FGFR1K in solution (control) and in the presence of peptide NTA(Ni)-nanodiscs at lipid:peptide ratios of 1:1, 1:3 and 1:9; FGFR1K oligomer and monomer semi-quantitated; both purified

The chains behind the UniProt entries cited, without tags or fusion partners. Residues count along the entry.
UniProt P11362, residues 458-765: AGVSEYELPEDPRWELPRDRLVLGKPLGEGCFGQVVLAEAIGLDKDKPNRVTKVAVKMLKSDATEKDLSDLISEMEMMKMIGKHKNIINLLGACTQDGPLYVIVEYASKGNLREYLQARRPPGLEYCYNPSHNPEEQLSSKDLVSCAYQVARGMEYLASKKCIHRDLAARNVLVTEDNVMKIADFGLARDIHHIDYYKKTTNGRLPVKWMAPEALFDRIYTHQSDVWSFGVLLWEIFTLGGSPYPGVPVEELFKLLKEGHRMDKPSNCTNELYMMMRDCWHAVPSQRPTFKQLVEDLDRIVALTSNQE

binding: binds
Substance: FGFR1c kinase domain (residues 458-765; FGFR1K) (from UniProt P11362 458-765) (domain or fragment)
